ChEMBL document CHEMBL3132851, “Achieving improved permeability by hydrogen bond donor modulation in a series of MGAT2 inhibitors” (Medchemcomm, 2013)

Assay: Lipophilicity, log D of the compound at pH 7.4 after 30 mins by shake-flask method
Settings: buffer, pH 7.4, logD

Cc1cc2c(cc1S(=O)(=O)Nc1ccc(C(F)(F)F)cc1)C(=O)NC(C)(C)C(=O)N2
logD at 0.5 h: 3

CC1(C)NC(=O)c2cc(S(=O)(=O)Nc3ccc(C(F)(F)F)cc3)c(F)cc2NC1=O
logD at 0.5 h: 2.3
